Experiment [1] addresses Flag-tagged BRCA1 (UniProt P38398). In words: co-IP; nuclear extracts of COS7 cells transfected with Flag-tagged BRCA1 and GST-tagged TFII-I; IP with anti-FLAG M2 agarose, blot with anti-GST antibodies.
Experiment [2] has the same target. The experiment can be described thus: condition: only cytoplasmic fraction of the COS7 cells; co-IP; cytoplasmic fraction of transfected COS7 cells; IP of BRCA1, blot for TFII-I.
In experiment [3] the target is BRCA1 (endogenous, HeLa cells) (human (endogenous in HeLa)) (UniProt P38398). The experiment can be described thus: co-IP; whole-cell extracts of HeLa cells; IP with anti-BRCA1 antibodies (epitope at the carboxyl-terminus of BRCA1) and protein G sepharose, blot with anti-TFII-I antibodies; reciprocal IP also performed.

Chains of the proteins cited; added tags and fusions are not shown. Lines headed by an entry give the natural chain unless they say otherwise; changes in a name come on top. A line that says so, or that is headed by a name, gives the form on record, which may keep a tag or linker.
UniProt P38398: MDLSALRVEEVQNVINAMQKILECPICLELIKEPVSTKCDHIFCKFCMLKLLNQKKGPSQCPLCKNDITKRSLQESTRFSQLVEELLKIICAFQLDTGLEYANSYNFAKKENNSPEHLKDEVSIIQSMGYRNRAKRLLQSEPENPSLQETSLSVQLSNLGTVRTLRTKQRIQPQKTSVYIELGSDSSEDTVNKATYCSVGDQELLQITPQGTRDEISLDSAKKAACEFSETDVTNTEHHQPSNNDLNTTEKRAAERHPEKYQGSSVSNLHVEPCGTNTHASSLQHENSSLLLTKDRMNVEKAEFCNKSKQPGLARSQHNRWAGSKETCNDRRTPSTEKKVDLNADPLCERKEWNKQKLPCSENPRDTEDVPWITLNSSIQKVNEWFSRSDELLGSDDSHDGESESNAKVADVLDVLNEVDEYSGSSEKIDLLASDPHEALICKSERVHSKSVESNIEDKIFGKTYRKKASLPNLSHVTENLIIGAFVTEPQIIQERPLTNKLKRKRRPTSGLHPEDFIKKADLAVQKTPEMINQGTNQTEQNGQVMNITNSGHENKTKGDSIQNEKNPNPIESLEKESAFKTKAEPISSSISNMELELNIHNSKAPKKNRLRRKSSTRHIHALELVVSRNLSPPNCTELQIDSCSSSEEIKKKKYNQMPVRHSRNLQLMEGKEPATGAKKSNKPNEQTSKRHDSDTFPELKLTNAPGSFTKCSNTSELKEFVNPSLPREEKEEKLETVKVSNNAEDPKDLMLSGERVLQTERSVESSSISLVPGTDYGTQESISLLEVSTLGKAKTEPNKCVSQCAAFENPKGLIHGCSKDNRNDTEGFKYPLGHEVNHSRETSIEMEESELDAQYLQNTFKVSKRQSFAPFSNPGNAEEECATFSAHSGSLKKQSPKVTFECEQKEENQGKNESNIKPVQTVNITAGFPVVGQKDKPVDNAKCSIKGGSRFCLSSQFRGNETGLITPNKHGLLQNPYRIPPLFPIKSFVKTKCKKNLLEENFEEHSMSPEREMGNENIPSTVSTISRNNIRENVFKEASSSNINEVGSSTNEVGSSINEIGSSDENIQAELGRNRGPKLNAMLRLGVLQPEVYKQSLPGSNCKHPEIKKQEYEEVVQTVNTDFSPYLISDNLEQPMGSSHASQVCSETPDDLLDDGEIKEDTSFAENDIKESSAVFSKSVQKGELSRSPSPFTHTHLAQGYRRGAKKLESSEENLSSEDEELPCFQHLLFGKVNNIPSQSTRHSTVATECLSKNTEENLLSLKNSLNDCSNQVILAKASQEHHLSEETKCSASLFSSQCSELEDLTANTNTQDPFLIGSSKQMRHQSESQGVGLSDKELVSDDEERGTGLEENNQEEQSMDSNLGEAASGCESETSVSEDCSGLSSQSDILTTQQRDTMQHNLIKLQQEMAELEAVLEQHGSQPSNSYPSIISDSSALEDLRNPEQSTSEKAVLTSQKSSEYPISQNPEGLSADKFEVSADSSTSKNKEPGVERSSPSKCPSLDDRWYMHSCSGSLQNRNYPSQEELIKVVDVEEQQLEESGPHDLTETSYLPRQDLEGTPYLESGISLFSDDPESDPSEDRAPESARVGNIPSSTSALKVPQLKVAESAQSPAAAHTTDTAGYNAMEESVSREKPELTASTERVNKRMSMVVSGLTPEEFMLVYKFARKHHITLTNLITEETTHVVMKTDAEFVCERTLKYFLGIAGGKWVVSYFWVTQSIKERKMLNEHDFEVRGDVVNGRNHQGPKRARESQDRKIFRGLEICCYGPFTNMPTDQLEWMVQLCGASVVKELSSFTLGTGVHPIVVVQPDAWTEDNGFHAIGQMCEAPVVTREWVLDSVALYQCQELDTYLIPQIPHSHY
UniProt P78347: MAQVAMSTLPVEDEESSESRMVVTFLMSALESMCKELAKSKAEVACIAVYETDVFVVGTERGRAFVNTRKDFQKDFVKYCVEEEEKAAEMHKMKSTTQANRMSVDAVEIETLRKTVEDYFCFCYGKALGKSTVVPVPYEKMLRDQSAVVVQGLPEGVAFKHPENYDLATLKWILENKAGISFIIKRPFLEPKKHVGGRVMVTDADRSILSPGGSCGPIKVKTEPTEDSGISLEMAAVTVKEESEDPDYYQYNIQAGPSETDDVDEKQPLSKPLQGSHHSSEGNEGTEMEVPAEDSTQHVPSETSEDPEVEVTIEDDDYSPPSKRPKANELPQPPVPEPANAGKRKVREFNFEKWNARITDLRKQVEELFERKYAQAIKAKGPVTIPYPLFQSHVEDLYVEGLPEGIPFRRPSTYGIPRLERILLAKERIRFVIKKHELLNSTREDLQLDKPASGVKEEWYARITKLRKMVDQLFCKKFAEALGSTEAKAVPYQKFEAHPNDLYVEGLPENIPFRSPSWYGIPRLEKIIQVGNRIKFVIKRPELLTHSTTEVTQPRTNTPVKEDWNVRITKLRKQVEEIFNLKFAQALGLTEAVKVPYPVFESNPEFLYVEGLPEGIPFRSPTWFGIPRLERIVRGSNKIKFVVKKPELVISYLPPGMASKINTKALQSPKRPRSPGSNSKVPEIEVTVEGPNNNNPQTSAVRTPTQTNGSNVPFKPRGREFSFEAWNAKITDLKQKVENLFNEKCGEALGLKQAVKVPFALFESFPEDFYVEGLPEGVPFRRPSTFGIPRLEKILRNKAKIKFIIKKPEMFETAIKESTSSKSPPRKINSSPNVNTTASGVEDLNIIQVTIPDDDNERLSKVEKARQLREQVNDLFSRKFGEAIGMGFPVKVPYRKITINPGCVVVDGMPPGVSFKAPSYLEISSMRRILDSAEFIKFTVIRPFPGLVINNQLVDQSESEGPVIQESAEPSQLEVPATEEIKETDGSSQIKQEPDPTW
GST-tagged TFII-I (wild type) (P78347-2, form named): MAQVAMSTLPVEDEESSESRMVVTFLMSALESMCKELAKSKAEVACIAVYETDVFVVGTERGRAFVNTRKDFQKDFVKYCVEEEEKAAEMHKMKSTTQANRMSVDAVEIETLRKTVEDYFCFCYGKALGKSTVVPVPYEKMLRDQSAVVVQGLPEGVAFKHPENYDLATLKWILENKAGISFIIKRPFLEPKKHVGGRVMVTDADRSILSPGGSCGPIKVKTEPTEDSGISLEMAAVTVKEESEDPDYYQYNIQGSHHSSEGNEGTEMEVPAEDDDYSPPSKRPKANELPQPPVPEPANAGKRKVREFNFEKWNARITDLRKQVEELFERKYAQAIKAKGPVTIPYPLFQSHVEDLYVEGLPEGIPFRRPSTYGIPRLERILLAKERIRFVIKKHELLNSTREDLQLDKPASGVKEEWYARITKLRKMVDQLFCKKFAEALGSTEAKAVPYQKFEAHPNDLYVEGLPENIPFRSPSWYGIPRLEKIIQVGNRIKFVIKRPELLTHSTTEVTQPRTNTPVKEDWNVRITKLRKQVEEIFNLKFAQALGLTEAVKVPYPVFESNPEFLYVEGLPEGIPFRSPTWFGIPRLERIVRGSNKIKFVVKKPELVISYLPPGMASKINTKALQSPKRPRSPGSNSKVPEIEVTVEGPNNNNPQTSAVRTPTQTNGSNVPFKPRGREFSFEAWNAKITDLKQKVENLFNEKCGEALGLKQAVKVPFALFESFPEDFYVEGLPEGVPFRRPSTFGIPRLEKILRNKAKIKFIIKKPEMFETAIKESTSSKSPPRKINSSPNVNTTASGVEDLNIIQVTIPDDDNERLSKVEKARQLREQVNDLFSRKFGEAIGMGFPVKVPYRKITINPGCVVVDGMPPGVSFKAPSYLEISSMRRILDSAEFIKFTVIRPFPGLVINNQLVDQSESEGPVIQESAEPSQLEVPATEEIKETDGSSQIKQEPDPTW

These are yes or no findings as the source states them, for the method shown. Binding seen in cells or lysates may run through a third protein. Some entries that bind do so weakly or less than the wild type.

For “GST-tagged TFII-I (wild type) (from UniProt P78347-2 1-957)”, the binding result in experiment [1] is “binds”; in experiment [2], “no binding”.
Take “TFII-I (endogenous, HeLa cells) (from UniProt P78347 1-998)”: the binding result in experiment [3] is reported as “binds”.

Values taken from publication PMC3078593.
